Among all 1,200 compounds or so, about 60 (5%) were called active. Not shown: some 1% with an inconclusive outcome.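 The calls were made as follows: active = Decreasing signal and fitted IC50 at most twice the top valid tested dose; inconclusive = Bad fit or a level curve showing 30 to 70% inhibition; inactive = the rest.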 The list shows a part of the results. Results with a measured potency or affinity are listed apart.
What follows are compounds tested against NAD-dependent protein deacylase sirtuin-5, mitochondrial (Homo sapiens) (UniProt Q9NXA8) (assay: SIRT5 desuccinylase inhibitors, dose response, biochemical, fluorescence imaging, cherry-pick, set 5 (AID 720591;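 also: 0% = median of neutral control wells and -100% = median of positive control wells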)). Conditions: Purified SirT5, succinyl-peptide AMC, trypsin-coupled fluorescence; at 15 µM (top of the series) unless noted.

By UniProt entry, the sequences of proteins in these tests, tags left out. Where a name states a change or a piece, a line headed by the entry shows the natural chain unless it says otherwise.
UniProt Q9NXA8: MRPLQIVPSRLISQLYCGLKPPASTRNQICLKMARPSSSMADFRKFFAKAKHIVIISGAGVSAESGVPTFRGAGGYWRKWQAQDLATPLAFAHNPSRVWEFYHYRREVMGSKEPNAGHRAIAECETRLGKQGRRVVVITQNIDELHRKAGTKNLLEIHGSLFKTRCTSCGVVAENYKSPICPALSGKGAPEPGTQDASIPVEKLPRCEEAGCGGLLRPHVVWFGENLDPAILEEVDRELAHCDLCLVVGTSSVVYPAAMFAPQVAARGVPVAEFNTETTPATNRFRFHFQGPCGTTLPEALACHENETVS

| Structure (SMILES) | activity change, negative = inhibition |
| --- | --- |
| CC1CN(S(=O)(=O)c2ccc(CN3C(=O)c4cccnc4C3=O)s2)c2ccccc2O1 (stereo not drawn) | inactive: 16.4% |
| O=C(c1cc2nc(-c3ccccc3)cc(C(F)(F)F)n2n1)N1CCCC1 | inactive: -23.5% |
| Cc1noc(C)c1NC(=O)N(C)C[C@@H]1Oc2ncc(Br)cc2C(=O)N([C@@H](C)CO)C[C@H]1C | inactive: 34.1% |
| Cc1ccc(-c2nc3c(Cl)cc(C(F)(F)F)cn3c2Cc2cccc(F)c2)cc1 | inactive: 6.86% |
| O=C(NCc1csc(-c2cccs2)n1)Nc1ccc(C(F)(F)F)cc1 | inactive: -5.41% |
| COc1ccccc1NC(=O)CNc1ccc(F)c(Cl)c1 | inactive: 0.52% |
| O=S1c2ccccc2Nc2ccccc21 | inactive: 8.8% |
| Cc1ccc(C(C(=O)NC(C)(C)C)N(C(=O)CCC(=O)Nc2ccccn2)c2ccccc2F)cc1 (stereo not drawn) | inactive: -3.12% |
| CSc1ccccc1OCc1cc(C(=O)N(C)C2CCCc3ccccc32)no1 (stereo not drawn) | inactive: -23.7% |
| Cc1cccc(Nc2ccncc2S(N)(=O)=O)c1 | inactive: 15.9% |
| COC(=O)[C@@]1(Cc2ccc(F)cc2)[C@H]2c3cc(C(=O)N4CCCC4)n(Cc4cc(F)cc5c4OCOC5)c3C[C@H]2CN1C(=O)c1ccccc1 | inactive: 5.04% |
| CCc1cc(CNC(=O)CCc2nnc(CCCc3ccccc3)o2)on1 | inactive: 15.5% |
| Cc1cc(C(=O)OCC(=O)N(C)c2ccccc2)c2ccccc2n1 | inactive: 8.2% |
| NNC(=O)Nc1cccc(C(F)(F)F)c1 | inactive: -19.8% |
| Cc1ccc(Cn2c(N3CCN(C)CC3)nc3c2c(=O)[nH]c(=O)n3C)cc1 | inactive: -22.3% |
| CC(C)CCNC(=O)CC1C(=O)N(Cc2ccccc2)C(C)c2nc3ccccc3n21 (stereo not drawn) | inactive: -12.5% |
| CCOC(=O)c1c(-c2ccccc2)oc2ccc(OCC(N)=O)cc12 | inactive: -16.4% |
| Cn1c(SCC(=O)NCC2CCCO2)nnc1-c1ccc(Cl)cc1 (stereo not drawn) | inactive: -5.46% |
| Cc1ccc(N(C(=O)c2csnn2)C(C(=O)NC2CCCCC2)c2ccco2)cc1 (stereo not drawn) | inactive: 30.9% |
| Cc1cccc(NC(=O)C2CC(=O)n3ncnc3N2)c1 (stereo not drawn) | inactive: -12.1% |
| COc1cccc(CC(=O)Nc2nc(-c3ccc(F)c(F)c3)cs2)c1 | inactive: -16.6% |
| COc1ccc(Cl)cc1NC(=O)COC(=O)c1ccc(Br)o1 | inactive: -27.1% |
| COc1ccc(-c2[nH]ncc2CN2CCCC(C(=O)c3cccc(OC)c3)C2)cc1 (stereo not drawn) | inactive: 6.7% |
| Cc1c(C)c2c(C)nn(-c3ccccc3)c2[nH]c1=O | inactive: -25.9% |
| CC(C)(C)C(=O)c1c(N)[nH]c(C(=O)c2ccccc2)c1-c1ccc(Br)cc1 | inactive: 15.2% |

Molecules shown so far containing a CF3 group, in the order listed:

| Structure (SMILES) | activity change, negative = inhibition |
| --- | --- |
| O=C(c1cc2nc(-c3ccccc3)cc(C(F)(F)F)n2n1)N1CCCC1 | inactive: -23.5% |
| Cc1ccc(-c2nc3c(Cl)cc(C(F)(F)F)cn3c2Cc2cccc(F)c2)cc1 | inactive: 6.86% |
| O=C(NCc1csc(-c2cccs2)n1)Nc1ccc(C(F)(F)F)cc1 | inactive: -5.41% |
| NNC(=O)Nc1cccc(C(F)(F)F)c1 | inactive: -19.8% |

Following part

| Structure (SMILES) | activity change, negative = inhibition |
| --- | --- |
| CCN(CC(=O)NC1CCS(=O)(=O)C1)S(=O)(=O)c1ccccc1 (stereo not drawn) | inactive: 19.5% |
| CSc1ccccc1C(=O)Nc1ccc2c(c1)CCC2 | inactive: 8.23% |
| CCOC(=O)c1cnc2ncnn2c1N | inactive: -12.4% |
| Cc1cc(C(=O)COc2ccc(C#N)cc2)c(C)n1-c1ccc2c(c1)OCO2 | inactive: 9.98% [at 7.5 µM] |
| COc1ccc2c(c1)C(=O)O[C@@H](c1ccccc1)C[C@@H](O)C(=O)CC2 | inactive: 5.6% |
| O=C(Nc1ccc(S(=O)(=O)Nc2nccs2)cc1)c1cccc(F)c1 | inactive: 11.9% |
| C=CCNC(=O)CC1C(=O)NCCN1Cc1c(F)cccc1Cl (stereo not drawn) | inactive: 14.4% |
| Cc1nc(CN(C)Cc2nc(Cc3cccc(F)c3)no2)cs1 | inactive: -20.2% |
| c1ccc(CCn2nnc3ccccc32)cc1 | inactive: 16.6% |
| O=C(Nc1ccc(Br)cc1Cl)N1CCOCC1 | inactive: 9.12% |
| c1ccc(CN2CCC(N3CCC(N4CCCCCC4)CC3)CC2)cc1 | inactive: -6.12% |
| CCOc1ccc(CCNC(=O)Cn2nc(C)c3c(C)n(-c4ccccc4)nc3c2=O)cc1 | inactive: -21.5% |
| O=c1nc(-c2ccccc2)c2cc(Br)ccc2[nH]1 | inactive: 10.4% |
| CCOC(=O)CSC1=C(C#N)C(c2sccc2C)C(C(C)=O)=C(C)N1 (stereo not drawn) | inactive: -2.3% |
| COc1ccc(C2CC(c3cccs3)=NN2C(=O)CN2CCCCC2)cc1 (stereo not drawn) | inactive: -3.22% |
| CCOC(=O)c1c(C)[nH]c(C)c1C(=O)COC(=O)c1cc(OC)c(OC)cc1OC | inactive: -19% |
| COc1ccc(Nc2oc(-c3ccco3)nc2S(=O)(=O)c2ccc(F)cc2)cc1 | inactive: -8.04% |
| CCOC(=O)c1c(C)[nH]c(C)c1C(=O)COC(=O)c1cc2ccccc2cc1OC | inactive: 8.57% |
| CCOc1ccc(CCNS(=O)(=O)c2cn(C)cn2)cc1OCC | inactive: 25.9% |
| CCCCc1cc(=O)oc2cc(OCC(=O)NC3CCN(Cc4ccccc4)CC3)ccc12 | inactive: 1.28% |
| CCc1ccc(CN(C)C(=O)C2CCC(=O)N(Cc3ccccn3)C2)cc1 (stereo not drawn) | inactive: 39.2% [at 7.5 µM] |
| NS(=O)(=O)c1ccc(F)c(C(=O)O)c1 | inactive: -21.7% |
| COc1ccc(OC)c(NC(=O)CSc2nnc(CNC(=O)c3cccs3)o2)c1 | inactive: 13% |
| CCOc1ccccc1N(C)C(=O)c1cn(CC)c(=O)c2cc(OC)c(OC)cc12 | inactive: -3.6% |
| O=S1(=O)CC(N2CCN(CCO)CC2)CN1Cc1cn(Cc2ccc(Cl)cc2)nn1 (stereo not drawn) | inactive: -5.06% |

| Structure (SMILES) | activity change, negative = inhibition |
| --- | --- |
| CC(C)(C)NC(=O)C(c1ccco1)N(C(=O)c1csnn1)c1ccccc1 (stereo not drawn) | inactive: -6.46% |
| CC(C)NC(=O)CSCc1cccc(Br)c1 | inactive: -8.41% |
| COc1ccc(O)c(C(=O)c2cnc3c(c2)c(C)nn3CCO)c1 | inactive: 2.08% |
| N[C@@H](CO)c1nnc([C@H](Cc2ccc(O)cc2)NC(=O)C2CCNCC2)o1 | inactive: -9.88% |
| COc1ccc(OCC(=O)Nc2ccc(NC(=O)c3cccs3)cc2)cc1 | inactive: -14.9% |
| Cn1cnc2c(NCc3ccco3)ncnc21 | inactive: -20.1% |
| Cc1c(C(N)=O)sc2ncn(CCOc3ccccc3)c(=O)c12 | inactive: 19.4% |
| CC(=O)NC(CC(=O)N1CCN(C(C)=O)CC1)c1ccccc1 (stereo not drawn) | inactive: 2.36% |
| C=CCn1c(SCC(=O)c2ccc(O)c(O)c2)nnc1-c1ccc(C)cc1 | inactive: -23.6% |
| CCOC(=O)c1cc(C(C)C)sc1NC(=O)COC(=O)CCS(=O)(=O)c1ccccc1 | inactive: -24.3% |
| CCCC(=O)N1CCN(c2ccc(NC(=O)c3cccs3)cc2Cl)CC1 | inactive: -12% |
| CCOCCCNCc1ccc(OCc2ccccc2C)c(OC)c1 | inactive: 7.01% |
| Cc1cccc(-c2noc(C(C)NC(=O)c3ccco3)n2)c1 (stereo not drawn) | inactive: 3% |
| COc1cccc(OCc2ccc(Cn3nc(NC(=O)NCCc4ccc(OC)c(OC)c4)c4ccccc43)cc2)c1 | inactive: -10.4% |
| CCCCN(CCCC)S(=O)(=O)c1c(C)[nH]c(=O)[nH]c1=O | inactive: 3.94% |
| COc1ccccc1NC(=O)C1CCN(S(=O)(=O)c2ccc3c(c2)CC(C)N3C(C)=O)CC1 (stereo not drawn) | inactive: -5.26% |
| CCOc1ccc2nc(SCC(=O)Nc3cc(C)on3)c(C)cc2c1 | inactive: 6.79% |
| COc1ccc(CCNC(=O)[C@H](C)NC(=O)N2CCn3c2nc2ccccc23)cc1OC | inactive: 8.92% |
| N#Cc1cccc(NC(=O)Cn2cnc(S(=O)(=O)N3CCCCC3)c2)c1 | inactive: 0.087% |
| Cc1cccc(NC(=O)c2cccc(S(=O)(=O)Nc3c(C)n(C)n(-c4ccccc4)c3=O)c2)c1 | inactive: -18.5% |
| CCCNC(=O)CCc1c(C)nc2c(c(C)nn2-c2ccccc2)c1C | inactive: 22.2% |
| COC(=O)C1(Cc2cc(-c3ccc(OC)cc3OC)no2)CCN(C(=O)OC(C)(C)C)CC1 | inactive: -19% |
| CCCc1c(C(=O)OCC)[nH]c2c1C(=O)CCC2 | inactive: -33% |

Source: PubChem BioAssay AID720591 (Broad Institute, 2013)
